Some entries share one result that the patent states for a list of compounds.
Test system: r(CUG)12-MBNL1 complex
Assay: TR-FRET assay, disruption of the r(CUG)12-MBNL1 complex
Type: biochemical
Settings: 100 μM compound
Text: DM1 is caused by an RNA gain-of-function mechanism in which r(CUG)^exp binds and inactivates proteins involved RNA biogenesis.^(25-29) One protein, muscleblind-like 1 (MBNL1), regulates the alternative splicing of a sub-set of RNAs that are de-regulated in DM1.^(27, 43-45) We discovered that Formula (I) compounds disrupt the r(CUG)12-MBNL1 complex in vitro as determined by a previously described time-resolved fluorescence resonance energy transfer (TR-FRET) assay (FIG. 1A).^(46)
The in vitro activity of library compounds was assessed by disruption of the r(CUG)12-MBNL1 complex using a previously reported TR-FRET assay.^(32, 46) Biotinylated RNA was folded at 60° C. in 1× Folding Buffer (20 mM HEPES, pH 7.5, […], and 10 mM NaCl) and slowly cooled to room temperature. The buffer was then adjusted to 1× Assay Buffer (1× Folding Buffer supplemented with 2 mM MgCl2, 2 mM CaCl2, 5 mM DTT, 0.1% BSA, 0.05% Tween-20) and MBNL1-His6 was added. […] Plates were incubated at room temperature for 1 h, and then TR-FRET was measured using a Molecular Devices SpectraMax M5 plate reader using an excitation wavelength of 345 nm and a 420 nm cutoff. Fluorescence was measured at 545 and 665 nm. Library compounds were screened for potential intrinsic fluorescence under screening conditions. No library compounds were fluorescent at 665 nm and two non-hit compounds have low fluorescence at 545 nm. […]

SMILES | disruption of the r(CUG)12-MBNL1 complex
Nc1ccc2[nH]c(-c3ccc(C(=O)O)cc3)nc2c1 [Compound 2] | > 70%
c1cc(-c2nc3ccncc3[nH]2)ccn1 [Compound 3] | > 70%

From patent US20180296532A1, “RNA-Focused Small Molecules for Inhibiting RNA Toxicity in Myotonic Dystrophy” (The Scripps Research Institute, priority 2015, published 2018)
